Data source: PubChem BioAssay AID1053208 (Peter MacCallum Cancer Centre, 2014)

Assay: 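Synthetic lethal interactions between gene loss and doxorubicin in osteosarcoma cells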 (primary screen)
Cell system: mouse osteosarcoma cells, early-passage culture from an engineered mouse model of fibroblastic bone tumour
Reagent: siRNA pool against mouse genes, 40 nM
Timing: about 120 h (48 h before drug, then 72 h with drug)
Conditions: doxorubicin 100 nM for 72 h, roughly 30-40% inhibitory dose
Measurement: 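Viability read as ATP luminescence after 72 h of 100 nM doxorubicin or none, duplicate wells averaged, scaled to non-targeting siRNA, then expressed as robust z-scores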
Direction: viability z-score with doxorubicin and doxorubicin viability vs non-targeting: higher = more viable cells under doxorubicin; viability z-score without drug: higher = more viable cells with knock-down alone; z-score of drug to no-drug ratio: higher = less drug sensitisation by knock-down
Rule for the call: 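a pool counts as active when its viability z-score with doxorubicin is -2 or below and its z-score without drug lies between -2 and 2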
The whole screen tested about 17,000 reagents; this is an unselected part. In the full data, 788 (4.7%) were called active. 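Calls rest on z-score classes alone; an extra cut-off of viability at most 70% of control was not applied to them.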 Unmarked entries are inactive. Reagents against one gene are numbered here. A reagent listed more than once was tested more than once; the source does not tell the runs apart.

target gene	reagent no.	combined z-score class	viability z-score with doxorubicin	viability z-score without drug	z-score of drug to no-drug ratio	doxorubicin viability vs non-targeting
Klhl28	1	no change with or without drug	0.56	1.18	-0.11	0.99
1810018F18Rik	1	no change with or without drug	1.57	1.85	0.45	1.08
Cd164	1	no change with or without drug	-1.12	-0.17	-1.01	0.84
Garnl3	1	no change with or without drug	-1.35	-1.01	-0.67	0.82
Sh3d19	1	no change with or without drug	-0.45	-1.52	0.79	0.9
Srp54a	1	no change with or without drug	-0.67	-1.69	0.67	0.88
Tial1	1	no change with or without drug	-0.79	0.84	-1.24	0.87
Vamp5	1	no change with or without drug	0.67	-0.51	1.24	1
Vamp5	2	low cell count with doxorubicin only (active)	-2.02	-1.01	-1.46	0.76
Krt20	1	no change with or without drug	0	0.84	-0.45	0.94
Fut1	1	no change with or without drug	0.56	0.34	0.45	0.99
Lactb2	1	no change with or without drug	0.56	0.51	0.34	0.99
Spdl1	1	no change with or without drug	0.79	0.17	0.79	1.01
Cgref1	1	no change with or without drug	-0.45	0.51	-0.67	0.9
Rnf6	1	no change with or without drug	-1.24	-1.52	-0.11	0.83
Ppig	1	no change with or without drug	0.45	0.84	0	0.98
Grin2c	1	no change with or without drug	-0.67	-1.85	0.79	0.88
Git1	1	no change with or without drug	1.12	0.34	1.01	1.04
Nfib	1	no change with or without drug	0.34	0.84	-0.11	0.97
Nfib	2	no change with or without drug	1.35	-0.17	1.69	1.06
Pcbp3	1	no change with or without drug	-0.67	-0.51	-0.22	0.88
Or1a1	1	no change with or without drug	-0.67	-0.34	-0.34	0.88
Or1a1	1	no change with or without drug	0.67	0.84	0.22	1
Ssxb1	1	no change with or without drug	-1.12	0.51	-1.35	0.84
Ciao2a	1	no change with or without drug	0.22	0.51	0	0.96
Zfp286	1	no change with or without drug	0	-1.18	1.01	0.94
Or8j3b	1	no change with or without drug	0.45	-1.18	1.46	0.98
Psmb7	1	low cell count with and without drug	-7.42	-5.9	-5.73	0.28
Hnf1b	1	no change with or without drug	-0.22	1.18	-0.9	0.92
Prps1l1	1	low cell count with doxorubicin only (active)	-4.05	0.51	-4.38	0.58
Prps1l1	1	no change with or without drug	-0.56	-0.51	-0.11	0.89
Pou5f1	1	high cell count with and without drug	2.25	2.19	0.9	1.14
Aasdhppt	1	no change with or without drug	1.35	1.52	0.45	1.06
Fgf2os	1	no change with or without drug	0.67	-0.67	1.35	1
Fjx1	1	no change with or without drug	-0.56	-0.17	-0.34	0.89
Fgd1	1	no change with or without drug	-0.45	0.51	-0.67	0.9
Mrpl20	1	no change with or without drug	1.12	0.51	0.9	1.04
Cd300c2	1	no change with or without drug	-0.22	0.51	-0.45	0.92
Pnliprp2	1	no change with or without drug	1.57	1.85	0.45	1.08
Ceacam11	1	no change with or without drug	-0.67	0.17	-0.67	0.88
Tuba3b	1	no change with or without drug	0.9	0	1.01	1.02
Hand1	1	no change with or without drug	-1.24	0.17	-1.35	0.83
Nprl2	1	no change with or without drug	-0.22	-0.84	0.45	0.92
Tmem79	1	no change with or without drug	0.45	0.84	0	0.98
Cyp2d22	1	no change with or without drug	0.45	1.18	-0.22	0.98
Zfp51	1	no change with or without drug	0.22	0.84	-0.22	0.96
Amy1	1	no change with or without drug	-0.45	-0.51	0	0.9
Cbfa2t2	1	low cell count with doxorubicin only (active)	-2.25	0.17	-2.36	0.74
Arhgap33	1	no change with or without drug	-1.69	-0.84	-1.12	0.79
Or8b54	1	no change with or without drug	-1.8	-1.69	-0.67	0.78

3 entries from above, sorted by “z-score of drug to no-drug ratio”, lowest first.
target gene	reagent no.	combined z-score class	viability z-score with doxorubicin	viability z-score without drug	z-score of drug to no-drug ratio	doxorubicin viability vs non-targeting
Nfib	1	no change with or without drug	0.34	0.84	-0.11	0.97
Git1	1	no change with or without drug	1.12	0.34	1.01	1.04
Nfib	2	no change with or without drug	1.35	-0.17	1.69	1.06
